Among the data in PubChem BioAssay AID463183 (Sanford-Burnham Center for Chemical Genomics, 2010) are cell count values, retold here.

The list shows a part of the results. Shown are side measurements of this screen, not its main read-out; they come without a call. Compounds called inactive in the main read-out are mostly missing here.

The experiment in a line: hepatocyte lipid droplet accumulation inhibitors, confirmation, imaging, AML12 mouse hepatocytes, single concentration, high-content (AID 463183).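 Note: cells counted after overnight compound exposure.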 As to conditions: BODIPY lipid droplet imaging, measured here: cell count, cytotoxicity, at 5.2 µM, droplets induced with 100 µM oleic acid.
Compound `CCN1CCN(Cc2ccc(NC(=O)c3ccc(C)c(NC(=O)C(=O)c4c[nH]c5ccccc45)c3)cc2C(F)(F)F)CC1` came in with a cell count of 1390 cells.
In the case of `CCOc1ccc(C(C)NC(=O)Cc2ccccc2F)cc1OCC` (configuration not stated), the cell count turned out to be 1540 cells.
To `Oc1ccc2ccccc2c1N=Nc1ccccc1F` belongs 1460 cells; to `C=CCC(=O)N1CCC(n2nccc2NC(=O)CCOc2ccccc2)CC1`, 1660 cells.
The same measure for `Cc1[nH]c2ccccc2c1/C=N/Nc1nc(Nc2ccc(F)cc2)nc(N2CCOCC2)n1`: 21 cells.
To `Cc1ccc(CNC(=O)c2ccc3nc4[nH]c5ccccc5c4nc3c2)cc1` belongs 1640 cells.
Compound `COc1ccccc1N1N=C(c2ccc([N+](=O)[O-])cc2)CC1c1ccccc1` (configuration not stated) displayed a cell count of 1640 cells.
The same measure for `CC(=O)C1=C(C)NC(SCSc2ccccc2)=C(C#N)C1c1cccnc1` (configuration not stated): 1630 cells.
To `COc1ccc(C(C#N)N2CCOCC2)cc1` (configuration not stated) belongs 1670 cells; to `COc1ccc(/C=N/N=C2\SCC(=O)N2c2c(C)n(C)n(-c3ccccc3)c2=O)cc1OC`, 1530 cells; to `CSc1ccc(NC(=O)N2CCC(C(=O)c3ccc(F)cc3)CC2)cc1`, 1600 cells.
The same measure for `CCOc1ccc(NS(=O)(=O)c2ccc(C(=O)N3CCC3)cc2)cc1`: 1640 cells.
Regarding `COc1ccc(S(=O)(=O)N2CCOCC2)cc1NC(=O)c1ccccc1C`, the cell count worked out at 1620 cells.
The same measure for `CCCn1nc2cc(C(=O)NCc3ccc(OC(F)(F)F)cc3)ccc2c1OCC`: 1590 cells; for `CCOc1ccc(CCNC(=O)CN2C(=O)NC3(CCCC3)C2=O)cc1OCC`: 1560 cells; for `CCCCNC(=O)c1ccc2c(c1)N(C)C(=O)c1ccccc1S2`: 1600 cells.
To `CCOc1ccc(C(C)NC(=O)Cc2ccccc2)cc1OCC` (configuration not stated) belongs 1670 cells; to `Cc1ccc(-c2cc(-c3c(C)nn(C)c(=O)c3N)[nH]n2)cc1`, 1570 cells.
The same measure for `CCOC(=O)c1cc(-c2ccc(F)cc2)n(CC(=O)NC(C)CC)c1C` (configuration not stated): 1670 cells; for `CC1CCN(C(=O)c2ccc3c(c2NCCO)C(=O)c2ccccc2C3=O)CC1`: 1650 cells; for `O=C(CN(CC1CCCO1)S(=O)(=O)c1ccc(S(=O)(=O)NC2CC2)cc1)Nc1ccccc1` (configuration not stated): 1590 cells.
Regarding `CSc1c(CC(=O)Nc2ccccc2C(F)(F)F)n(Cc2ccccc2)c2ccccc12`, the cell count was 1500 cells.
